Reference: the supplement of paper PMC10849652
Some of the results follow.

Sequences of proteins named here, by UniProt entry; tags and fusion partners are left off. A change or cut given only in a name is not applied to a line headed by its entry.
UniProt Q96BR5: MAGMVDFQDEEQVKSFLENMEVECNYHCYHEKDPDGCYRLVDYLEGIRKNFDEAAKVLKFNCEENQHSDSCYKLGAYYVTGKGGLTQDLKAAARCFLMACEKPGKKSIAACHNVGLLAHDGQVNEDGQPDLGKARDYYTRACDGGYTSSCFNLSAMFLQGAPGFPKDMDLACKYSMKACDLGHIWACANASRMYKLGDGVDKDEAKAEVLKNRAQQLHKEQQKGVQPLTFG
UniProt P06732: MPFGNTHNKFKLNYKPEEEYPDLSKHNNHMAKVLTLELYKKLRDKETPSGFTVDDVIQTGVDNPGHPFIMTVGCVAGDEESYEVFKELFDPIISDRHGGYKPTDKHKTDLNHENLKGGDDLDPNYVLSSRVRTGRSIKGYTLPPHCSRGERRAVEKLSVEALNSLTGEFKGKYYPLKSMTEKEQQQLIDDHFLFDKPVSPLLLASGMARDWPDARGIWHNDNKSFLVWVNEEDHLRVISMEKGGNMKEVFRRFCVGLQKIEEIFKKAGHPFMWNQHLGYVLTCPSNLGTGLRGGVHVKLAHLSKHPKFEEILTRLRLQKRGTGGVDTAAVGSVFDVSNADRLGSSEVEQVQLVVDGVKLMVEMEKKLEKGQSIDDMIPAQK
UniProt Q6PJW8: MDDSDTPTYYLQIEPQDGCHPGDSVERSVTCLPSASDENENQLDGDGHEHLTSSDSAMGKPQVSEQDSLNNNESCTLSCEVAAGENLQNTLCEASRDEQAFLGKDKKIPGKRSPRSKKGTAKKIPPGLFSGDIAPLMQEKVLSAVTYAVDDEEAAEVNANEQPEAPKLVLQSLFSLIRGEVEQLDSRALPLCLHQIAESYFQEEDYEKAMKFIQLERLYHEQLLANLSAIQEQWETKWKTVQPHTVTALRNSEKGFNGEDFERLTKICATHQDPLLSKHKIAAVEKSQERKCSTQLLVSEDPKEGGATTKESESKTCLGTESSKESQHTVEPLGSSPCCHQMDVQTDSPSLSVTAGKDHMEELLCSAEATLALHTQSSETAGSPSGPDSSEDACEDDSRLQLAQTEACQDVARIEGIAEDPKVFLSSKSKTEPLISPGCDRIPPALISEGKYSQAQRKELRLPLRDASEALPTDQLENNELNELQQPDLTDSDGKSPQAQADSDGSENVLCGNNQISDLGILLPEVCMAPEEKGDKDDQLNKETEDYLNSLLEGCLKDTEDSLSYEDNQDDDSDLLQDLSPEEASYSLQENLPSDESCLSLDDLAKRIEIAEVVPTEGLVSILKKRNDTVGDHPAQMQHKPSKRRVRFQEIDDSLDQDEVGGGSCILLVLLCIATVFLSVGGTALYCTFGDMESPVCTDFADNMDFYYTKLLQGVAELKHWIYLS
UniProt Q9BW66: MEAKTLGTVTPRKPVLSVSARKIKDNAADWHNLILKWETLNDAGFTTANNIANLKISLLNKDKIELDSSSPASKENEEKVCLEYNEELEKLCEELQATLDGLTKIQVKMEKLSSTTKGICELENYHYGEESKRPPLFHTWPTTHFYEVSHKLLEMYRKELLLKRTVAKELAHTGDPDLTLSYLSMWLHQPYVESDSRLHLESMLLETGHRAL
UniProt Q9Y2R0: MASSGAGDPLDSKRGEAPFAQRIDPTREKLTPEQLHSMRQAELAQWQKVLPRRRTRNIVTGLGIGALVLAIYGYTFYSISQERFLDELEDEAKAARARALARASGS
UniProt Q96FZ7: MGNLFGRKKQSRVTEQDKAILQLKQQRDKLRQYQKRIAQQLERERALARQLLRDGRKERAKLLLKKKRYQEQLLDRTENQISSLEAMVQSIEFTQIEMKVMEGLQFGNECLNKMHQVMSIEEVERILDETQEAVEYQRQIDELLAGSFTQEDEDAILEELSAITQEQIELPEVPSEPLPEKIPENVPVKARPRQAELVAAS
UniProt P30085: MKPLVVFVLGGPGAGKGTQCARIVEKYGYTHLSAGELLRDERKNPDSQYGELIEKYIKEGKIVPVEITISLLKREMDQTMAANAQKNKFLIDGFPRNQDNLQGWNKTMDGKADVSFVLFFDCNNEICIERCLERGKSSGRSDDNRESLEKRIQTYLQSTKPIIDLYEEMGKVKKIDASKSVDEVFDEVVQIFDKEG
UniProt Q5EBM0: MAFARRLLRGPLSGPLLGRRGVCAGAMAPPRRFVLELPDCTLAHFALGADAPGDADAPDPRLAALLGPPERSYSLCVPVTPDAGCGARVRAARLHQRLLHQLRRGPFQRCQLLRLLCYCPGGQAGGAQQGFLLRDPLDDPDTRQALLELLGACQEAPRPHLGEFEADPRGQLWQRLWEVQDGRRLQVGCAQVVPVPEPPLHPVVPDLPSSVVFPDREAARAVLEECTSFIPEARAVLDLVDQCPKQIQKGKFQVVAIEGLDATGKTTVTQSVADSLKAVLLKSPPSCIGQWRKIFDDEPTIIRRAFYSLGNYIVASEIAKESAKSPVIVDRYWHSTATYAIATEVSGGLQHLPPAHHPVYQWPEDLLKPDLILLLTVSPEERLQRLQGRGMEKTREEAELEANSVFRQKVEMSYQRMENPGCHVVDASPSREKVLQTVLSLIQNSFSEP
UniProt O76071: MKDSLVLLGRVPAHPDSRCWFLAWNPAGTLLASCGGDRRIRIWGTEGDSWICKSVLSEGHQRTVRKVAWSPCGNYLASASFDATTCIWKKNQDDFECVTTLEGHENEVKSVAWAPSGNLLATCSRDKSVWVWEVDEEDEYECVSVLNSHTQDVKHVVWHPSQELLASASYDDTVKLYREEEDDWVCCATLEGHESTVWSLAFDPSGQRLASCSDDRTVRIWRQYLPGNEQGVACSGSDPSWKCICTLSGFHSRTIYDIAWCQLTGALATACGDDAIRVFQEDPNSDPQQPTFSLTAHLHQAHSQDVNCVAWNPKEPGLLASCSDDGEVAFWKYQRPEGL
UniProt Q9H5X1: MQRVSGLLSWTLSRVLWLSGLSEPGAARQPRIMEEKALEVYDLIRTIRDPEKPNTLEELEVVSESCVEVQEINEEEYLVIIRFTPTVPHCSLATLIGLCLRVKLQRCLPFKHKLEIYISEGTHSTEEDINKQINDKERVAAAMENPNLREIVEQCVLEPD
UniProt Q99828: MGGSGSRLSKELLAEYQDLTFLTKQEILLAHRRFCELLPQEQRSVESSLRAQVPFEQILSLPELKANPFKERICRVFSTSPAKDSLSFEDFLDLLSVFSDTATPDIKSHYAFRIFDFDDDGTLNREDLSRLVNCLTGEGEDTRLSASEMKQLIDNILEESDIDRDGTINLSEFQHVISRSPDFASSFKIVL
UniProt Q9Y2B0: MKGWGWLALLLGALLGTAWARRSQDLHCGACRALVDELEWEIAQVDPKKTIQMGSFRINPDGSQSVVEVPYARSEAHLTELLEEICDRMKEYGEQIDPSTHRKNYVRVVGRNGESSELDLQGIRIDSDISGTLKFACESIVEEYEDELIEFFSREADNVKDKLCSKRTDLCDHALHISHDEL
UniProt Q9GZY4: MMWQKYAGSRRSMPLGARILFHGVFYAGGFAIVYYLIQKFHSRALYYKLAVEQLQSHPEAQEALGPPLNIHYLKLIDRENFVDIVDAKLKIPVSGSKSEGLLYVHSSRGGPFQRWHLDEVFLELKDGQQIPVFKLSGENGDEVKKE
UniProt Q9BQ75: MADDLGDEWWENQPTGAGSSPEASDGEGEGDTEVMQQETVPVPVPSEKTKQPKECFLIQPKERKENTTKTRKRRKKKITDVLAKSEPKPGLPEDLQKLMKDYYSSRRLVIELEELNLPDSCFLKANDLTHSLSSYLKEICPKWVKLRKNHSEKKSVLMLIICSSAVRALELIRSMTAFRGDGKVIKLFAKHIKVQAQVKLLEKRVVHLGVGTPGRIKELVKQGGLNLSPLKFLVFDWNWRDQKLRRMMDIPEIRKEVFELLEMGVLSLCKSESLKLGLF

Assays:
Assay in all cases: log2 fold change, soluble protein after heating vs DMSO (PISA); higher = thermal stabilisation; K562 cells, 10 uM, 30 min; active = over 0.2 and 3.5 SD of the protein, either way, in both replicates (recomputed)
[1] = compound: COC1=CC=C(C=C1)CN2C=CC3=C2C=C(C=C3)C(=O)NO
Outline: (§1)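 Quantification of soluble protein used TMTpro 16plex LC-MS/MS, with channel sums equalised. Samples were the supernatant after 21,000xg for 90 min of pooled aliquots from K562 cells (2×10^6 cells/mL) treated with 10 μM compound for 30 min, heated for 3 min over 48°C-58°C, and extracted in PBS with 0.5% NP-40 at 4°C. Values, from duplicates, describe thermal stability against control samples on a log2 fold-change scale.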

[2] = compound: CON(C)C(=O)N1N=C(c2cc(F)ccc2F)S[C@@]1(CCCN)c1ccccc1 [filanesib]
Outline: as §1

[3] = compound: CO[C@H]1C[C@@H]2CC[C@@H](C)[C@@](O)(O2)C(=O)C(=O)N2CCCC[C@H]2C(=O)O[C@H]([C@H](C)C[C@@H]2CC[C@H](n3cnnn3)[C@H](OC)C2)CC(=O)[C@H](C)/C=C(\C)[C@@H](O)[C@@H](OC)C(=O)[C@H](C)C[C@H](C)/C=C/C=C/C=C/1C [zotarolimus]
Outline: as §1

[4] = compound: COc1cc(C(=O)O)ccc1NC(=O)[C@@H]1N[C@@H](CC(C)(C)C)[C@](C#N)(c2ccc(Cl)cc2F)[C@H]1c1cccc(Cl)c1F [idasanutlin]
Outline: as §1

[5] = compound: COc1cc(Nc2ncc3c(n2)-c2ccc(Cl)cc2C(c2c(F)cccc2OC)=NC3)ccc1C(=O)O [alisertib]
Outline: as §1

[6] = compound: COc1cc2nc(-c3cc(F)ccc3O)nc(N[C@@H]3CNC[C@H]3C(C)(C)O)c2cc1OC
Outline: as §1

[7] = compound: COc1cc2ncnc(Nc3ccc(F)c(Cl)c3)c2cc1OCCCN1CCOCC1 [gefitinib]
Outline: as §1

[8] = compound: COc1cccc2cc(-c3nc([C@H]4CC[C@H](C(=O)O)CC4)n4ncnc(N)c34)[nH]c12
Outline: as §1

[9] = compound: CS(=O)(=O)CCNCc1ccc(-c2ccc3ncnc(Nc4ccc(OCc5cccc(F)c5)c(Cl)c4)c3c2)o1 [lapatinib]
Outline: as §1

[10] = compound: CS(=O)(=O)N1CCN(Cc2cc3nc(-c4cccc5[nH]ncc45)nc(N4CCOCC4)c3s2)CC1 [pictilisib]
Outline: as §1

[11] = compound: CS(=O)(=O)c1ccc(-c2cnc(N)c(C(=O)Nc3ccccc3)n2)cc1
Outline: as §1

[12] = compound: C[C@@H](Oc1cc(-c2cnn(C3CCNCC3)c2)cnc1N)c1c(Cl)ccc(F)c1Cl [crizotinib]
Outline: as §1

[13] = compound: C[C@@H]1COCCN1C2=NC(=NC(=C2)C3(CC3)S(=O)(=O)C)C4=C5C=CNC5=CC=C4
Outline: as §1

[14] = compound: C[C@H](C1=CC=C(C=C1)C(=O)NC2=C3C=CNC3=NC=C2)N
Outline: as §1

[15] = compound: C[C@H](Nc1ncnc2nc[nH]c12)c1cc2cccc(Cl)c2c(=O)n1-c1ccccc1 [duvelisib]
Outline: as §1

[16] = compound: Cc1cc(Nc2cc(CN3CCOCC3)c3nc(C)c(Cc4ccc(Cl)cc4F)n3n2)n[nH]1 [gandotinib]
Outline: as §1

[17] = compound: Cc1cc(Nc2cc(N3CCN(C)CC3)nc(Sc3ccc(NC(=O)C4CC4)cc3)n2)n[nH]1 [tozasertib]
Outline: as §1

[18] = compound: Cc1cc(SCc2sc(-c3ccc(C(F)(F)F)cc3)nc2C)ccc1OCC(=O)O
Outline: as §1

[19] = compound: Cc1ccc(-n2nc(C(C)(C)C)cc2NC(=O)Nc2ccc(OCCN3CCOCC3)c3ccccc23)cc1 [doramapimod]
Outline: as §1

[20] = compound: Cc1ccc(C(=O)N(CCCN)[C@@H](c2nc3cc(Cl)ccc3c(=O)n2Cc2ccccc2)C(C)C)cc1 [ispinesib]
Outline: as §1

Measured: log2 fold change

COA7 (UniProt Q96BR5)
inactive: [1] 0.013 | [2] -0.082 | [3] -0.018 | [4] -0.026 | [5] -0.038 | [6] -0.081 | [7] 0.019 | [8] 0.036 | [9] 0.086 | [10] -0.001 | [11] -0.039 | [12] -0.013 | [13] 0.062 | [14] -0.048 | [15] 0.014 | [16] -0.093 | [17] 0.016 | [18] -0.034 | [19] -0.064 | [20] 0.065

CNOT6L (UniProt Q96LI5)
inactive: [1] 0.01 | [2] 0.06 | [3] 0.001 | [4] 0.21 | [5] -0.123 | [6] 0.055 | [7] 0.08 | [8] -0.027 | [9] 0.156 | [10] -0.133 | [11] 0.024 | [12] -0.013 | [13] 0.037 | [14] 0.016 | [15] 0.021 | [16] 0.019 | [17] -0.062 | [18] 0.05 | [19] -0.007 | [20] -0.019

CKMT2 (UniProt P17540)
inactive: [1] 0.01 | [2] 0.125 | [3] -0.007 | [4] 0.001 | [5] 0.369 | [6] 0.082 | [7] 0.027 | [8] 0.039 | [9] -0.079 | [10] -0.058 | [11] 0.331 | [12] 0.095 | [13] -0.019 | [14] 0.039 | [15] -0.051 | [16] 0.082 | [17] 0.055 | [18] 0.142 | [19] -0.005 | [20] -0.054

CKM (UniProt P06732)
inactive: [1] 0.165 | [2] -0.182 | [3] -0.008 | [4] -0.025 | [5] -0.006 | [6] -0.073 | [7] -0.055 | [8] 0.132 | [9] 0 | [10] 0.087 | [11] 0.039 | [12] -0.225 | [13] 0.017 | [14] -0.129 | [15] -0.016 | [16] -0.099 | [17] -0.046 | [18] -0.047 | [19] -0.011 | [20] 0.006

CNST (UniProt Q6PJW8)
inactive: [1] 0.014 | [2] -0.055 | [3] 0.013 | [4] 0.01 | [5] -0.004 | [6] 0.015 | [7] 0.007 | [8] 0.032 | [9] 0.018 | [10] 0.066 | [11] -0.021 | [12] 0.055 | [13] 0.048 | [14] -0.024 | [15] 0.03 | [16] -0.046 | [17] -0.022 | [18] -0.023 | [19] 0.01 | [20] 0.025

CINP isoform 3 (UniProt Q9BW66)
inactive: [1] 0.036 | [2] 0.021 | [3] -0.019 | [4] 0.002 | [5] -0.033 | [6] -0.02 | [7] 0.043 | [8] 0.04 | [9] 0.003 | [10] -0.009 | [11] -0.011 | [12] -0.002 | [13] -0.054 | [14] -0.051 | [15] 0.066 | [16] 0.033 | [17] -0.005 | [18] -0.043 | [19] 0.006 | [20] -0.058

COA3 (UniProt Q9Y2R0)
inactive: [1] -0.113 | [2] 0.013 | [3] -0.04 | [4] -0.041 | [5] -0.081 | [6] -0.017 | [7] 0.004 | [8] 0.056 | [9] -0.055 | [10] -0.007 | [11] -0.008 | [12] 0.117 | [13] 0.009 | [14] -0.045 | [15] 0.015 | [16] 0.031 | [17] 0.023 | [18] -0.059 | [19] 0.004 | [20] 0.023

CHMP6 (UniProt Q96FZ7)
inactive: [1] 0.069 | [2] 0.07 | [3] 0.03 | [4] -0.098 | [5] -0.034 | [6] 0.067 | [7] 0.015 | [8] -0.016 | [9] -0.037 | [10] 0.133 | [11] 0.047 | [12] 0.13 | [13] 0.016 | [14] -0.038 | [15] 0.116 | [16] 0.02 | [17] -0.002 | [18] 0.04 | [19] -0.043 | [20] 0.117

CMPK1 (UniProt P30085)
inactive: [1] -0.01 | [2] -0.029 | [3] 0.007 | [4] -0.054 | [5] -0.027 | [6] 0.002 | [7] -0.035 | [8] 0.095 | [9] -0.066 | [10] 0.094 | [11] 0.028 | [12] -0.083 | [13] 0.009 | [14] -0.076 | [15] 0.029 | [16] -0.059 | [17] -0.003 | [18] 0.014 | [19] -0.016 | [20] 0.022

CMPK2 (UniProt Q5EBM0)
inactive: [1] 0.018 | [2] 0.01 | [3] 0.004 | [4] -0.06 | [5] 0.117 | [6] 0.04 | [7] -0.024 | [8] 0.058 | [9] 0.014 | [10] 0.091 | [11] 0.058 | [12] -0.016 | [13] 0.107 | [14] 0.088 | [15] 0.044 | [16] -0.031 | [17] -0.044 | [18] -0.032 | [19] 0.038

CIAO1 (UniProt O76071)
inactive: [1] 0.019 | [2] -0.055 | [3] -0.005 | [4] -0.016 | [5] -0.027 | [6] -0.01 | [7] 0.006 | [8] 0.046 | [9] -0.148 | [10] 0.019 | [11] 0.01 | [12] 0.002 | [13] 0.104 | [14] -0.02 | [15] 0.086 | [16] 0.001 | [17] -0.039 | [18] 0.057 | [19] -0.02 | [20] -0.059

CIAO2A (UniProt Q9H5X1)
inactive: [1] 0.001 | [2] -0.123 | [3] 0.004 | [4] 0.015 | [5] -0.136 | [6] -0.099 | [7] -0.008 | [8] 0.045 | [9] -0.041 | [10] 0.071 | [11] -0.025 | [12] -0.015 | [13] -0.024 | [14] -0.059 | [15] 0.099 | [16] -0.127 | [17] -0.022 | [18] 0.01 | [19] -0.009 | [20] -0.104

CIB1 isoform 2 (UniProt Q99828)
inactive: [1] 0.133 | [2] 0.133 | [3] 0.11 | [4] -0.021 | [5] 0.129 | [6] 0.009 | [7] -0.059 | [8] -0.193 | [9] -0.018 | [10] 0.01 | [11] 0.037 | [12] 0.009 | [13] 0.058 | [14] -0.019 | [15] 0.008 | [16] 0.069 | [17] 0.024 | [18] -0.075 | [19] 0 | [20] -0.073

Looked up one by one from the entries so far, 2 records:
CIAO1 (UniProt O76071)
inactive: [1] 0.019 | [2] -0.055 | [3] -0.005 | [4] -0.016 | [5] -0.027 | [6] -0.01 | [7] 0.006 | [8] 0.046 | [9] -0.148 | [10] 0.019 | [11] 0.01 | [12] 0.002 | [13] 0.104 | [14] -0.02 | [15] 0.086 | [16] 0.001 | [17] -0.039 | [18] 0.057 | [19] -0.02 | [20] -0.059

CIAO2A (UniProt Q9H5X1)
inactive: [1] 0.001 | [2] -0.123 | [3] 0.004 | [4] 0.015 | [5] -0.136 | [6] -0.099 | [7] -0.008 | [8] 0.045 | [9] -0.041 | [10] 0.071 | [11] -0.025 | [12] -0.015 | [13] -0.024 | [14] -0.059 | [15] 0.099 | [16] -0.127 | [17] -0.022 | [18] 0.01 | [19] -0.009 | [20] -0.104

Next records

CNPY2 (UniProt Q9Y2B0)
inactive: [1] -0.085 | [2] -0.013 | [3] 0.025 | [4] -0.036 | [5] -0.045 | [6] 0.012 | [7] -0.009 | [8] 0.036 | [9] -0.018 | [10] 0.015 | [11] 0.027 | [12] 0.026 | [13] -0.018 | [14] 0.042 | [15] 0.076 | [16] -0.007 | [17] -0.002 | [18] 0.026 | [19] -0.046 | [20] 0.021

COA1 (UniProt Q9GZY4)
inactive: [1] -0.018 | [2] -0.085 | [3] -0.07 | [4] 0.014 | [5] -0.043 | [6] -0.098 | [7] -0.016 | [8] 0.119 | [9] -0.027 | [10] 0.018 | [11] 0.04 | [12] 0.002 | [13] 0.085 | [14] -0.035 | [15] 0.139 | [16] 0.063 | [17] -0.032 | [18] 0.025 | [19] -0.029 | [20] -0.028

CMSS1 (UniProt Q9BQ75)
inactive: [1] 0.001 | [2] 0.177 | [3] -0.03 | [4] -0.127 | [5] -0.146 | [6] 0.26 | [7] -0.169 | [8] 0.022 | [9] 0.023 | [10] -0.022 | [11] -0.076 | [12] -0.06 | [13] 0.017 | [14] 0.181 | [15] -0.069 | [16] -0.069 | [17] 0.11 | [18] -0.012 | [19] 0.038 | [20] -0.057
